PubChem BioAssay AID1259254, NCATS, 2017
Here is one part, drawn at random, of about 59,000 reagents tested. In the full data, about 1,550 (2.6%) are marked active. 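G2 share is only a proxy for re-replication; each gene was hit by three separate siRNAs, and active genes were retested.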 Reagents against one gene are numbered here. Further read-outs or replicates are left out here. Not stated in the record: the amount of reagent.

Assay: 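Finding genes that stop cells copying their DNA twice in one cycle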 (primary screen)
System: human HCT116 colorectal cancer cells
Reagent: single siRNA against human genes
Time to read-out: 3 days
Measurement: 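Nuclei stained with Hoechst and imaged; cell-cycle phase assigned by DNA content; G2 share scaled per plate, non-targeting siRNA 0%, GMNN siRNA 100%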
Direction: G2 robust z-score: higher = more G2 cells, more excess DNA replication
Active means: 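An siRNA counts as active if its G2 robust z-score lies at least 5 MADs above the screen median; here such calls match roughly 38% of GMNN control or more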

PAX1 (GeneID 5075) #1: G2 robust z-score = 0.5; outcome = inactive
PAX1 (GeneID 5075) #2: G2 robust z-score = 0.649; outcome = inactive
PAX1 (GeneID 5075) #3: G2 robust z-score = -0.641; outcome = inactive
SURF2 (GeneID 6835) #1: G2 robust z-score = 1.35; outcome = inactive
SURF2 (GeneID 6835) #2: G2 robust z-score = -0.294; outcome = inactive
SURF2 (GeneID 6835) #3: G2 robust z-score = -0.397; outcome = inactive
RPL13P12 (GeneID 388344) #1: G2 robust z-score = -0.236; outcome = inactive
RPL13P12 (GeneID 388344) #2: G2 robust z-score = 1.88; outcome = inactive
RPL13P12 (GeneID 388344) #3: G2 robust z-score = 1.24; outcome = inactive
URB2 (GeneID 9816) #1: G2 robust z-score = 0.216; outcome = inactive
URB2 (GeneID 9816) #2: G2 robust z-score = -0.36; outcome = inactive
URB2 (GeneID 9816) #3: G2 robust z-score = 1.12; outcome = inactive

The list goes on, starting with the last 2 of the part before.
URB2 (GeneID 9816) #2: G2 robust z-score = -0.36; outcome = inactive
URB2 (GeneID 9816) #3: G2 robust z-score = 1.12; outcome = inactive
MPTX1 (GeneID 649458) #1: G2 robust z-score = -0.485; outcome = inactive
MPTX1 (GeneID 649458) #2: G2 robust z-score = -0.451; outcome = inactive
MPTX1 (GeneID 649458) #3: G2 robust z-score = 1.32; outcome = inactive
MIGA2 (GeneID 84895) #1: G2 robust z-score = -0.645; outcome = inactive
MIGA2 (GeneID 84895) #2: G2 robust z-score = 0.377; outcome = inactive
MIGA2 (GeneID 84895) #3: G2 robust z-score = -0.0577; outcome = inactive
ATP5F1C (GeneID 509) #1: G2 robust z-score = 1.91; outcome = inactive
ATP5F1C (GeneID 509) #2: G2 robust z-score = -1.09; outcome = inactive
ATP5F1C (GeneID 509) #3: G2 robust z-score = 4.02; outcome = inactive
LINC02604 (GeneID 644794) #1: G2 robust z-score = 1.49; outcome = inactive
LINC02604 (GeneID 644794) #2: G2 robust z-score = -0.541; outcome = inactive
LINC02604 (GeneID 644794) #3: G2 robust z-score = -1.03; outcome = inactive
ADAM28 (GeneID 10863) #1: G2 robust z-score = -0.504; outcome = inactive
ADAM28 (GeneID 10863) #2: G2 robust z-score = -0.735; outcome = inactive
ADAM28 (GeneID 10863) #3: G2 robust z-score = -0.791; outcome = inactive
SELENBP1 (GeneID 8991) #1: G2 robust z-score = -0.95; outcome = inactive
SELENBP1 (GeneID 8991) #2: G2 robust z-score = -0.191; outcome = inactive
SELENBP1 (GeneID 8991) #3: G2 robust z-score = -0.61; outcome = inactive
